Results from ChEMBL document CHEMBL5303711, “ECBD screening data for assay EOS300108” (2023).
Calls of active or inactive are those of the source. No rule for the calls is given here.

Assay: Cytotoxicity activity against human HepG2 cells assessed by CellTiter-Glo luminescent cell viability assay.
Format: toxicity, cell-based
Set-up: assay stage confirmatory assay, source tissue liver
Settings: read-out: IC50 relative

In the case of `Cc1ccc(C(=O)NCCCCCC(=O)Nc2ccccc2N)cc1`, the CC50 is reported as active: 11.3 µM.
